PubChem BioAssay AID652243 – Drosophila RNAi Screening Center, 2013
Aim: 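Fly genes required for human androgen receptor driven transcription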 (primary screen). System: Drosophila S2R+ cells. Knock-down reagent: long dsRNA against Drosophila genes. Time to read-out: 72 h (48 h, then 24 h hormone). Conditions: synthetic androgen R1881 at 10 nM for 24 h. Detection: 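Firefly light from an androgen-responsive reporter and Renilla control light per well, raw and unnormalised, for each of two replicates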. Scale: firefly reporter light: higher = more light from androgen-responsive reporter; Renilla control light: higher = more constitutive control signal (cell number, transfection). Active means: 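Across duplicate plates, a knock-down whose log firefly/Renilla ratio shifted a set fold down or up from the GFP/LacZ control mean was a hit; the downward cut appears as both 1.5 and 3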. Calls: active = hit: reporter lowered or raised; inactive = no hit.
In all, the deposit lists about 24,000 reagents; this is an unselected part of those that have a named target and a result. Over the whole deposit, 246 (1%) are marked active. 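Plates not normalised; calls are printed but the firefly/Renilla ratio behind them is not deposited; fold cut for lowering reported inconsistently.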 Raw values are not corrected between plates. A plus sign joins genes that one reagent is predicted to hit. No sequences are given here. Not stated in the record: the amount of reagent.

{"gene":"CG18858 + CG31683","PubChem SID":"SID104205332","firefly reporter light, replicate 1":3.61e5,"firefly reporter light, replicate 2":3.40e5,"Renilla control light, replicate 1":6.59e5,"Renilla control light, replicate 2":4.38e5,"call":"inactive"}
{"gene":"CG1774","PubChem SID":"SID104195050","firefly reporter light, replicate 1":52914,"firefly reporter light, replicate 2":50368,"Renilla control light, replicate 1":4.32e5,"Renilla control light, replicate 2":3.16e5,"call":"inactive"}
{"gene":"AttD","PubChem SID":"SID104196064","firefly reporter light, replicate 1":3.30e5,"firefly reporter light, replicate 2":3.15e5,"Renilla control light, replicate 1":1.90e6,"Renilla control light, replicate 2":2.72e6,"call":"inactive"}
{"gene":"Bcs1","PubChem SID":"SID104182581","firefly reporter light, replicate 1":85645,"firefly reporter light, replicate 2":75907,"Renilla control light, replicate 1":6.83e5,"Renilla control light, replicate 2":6.28e5,"call":"inactive"}
{"gene":"Nnk","PubChem SID":"SID104195066","firefly reporter light, replicate 1":54201,"firefly reporter light, replicate 2":69357,"Renilla control light, replicate 1":1.06e6,"Renilla control light, replicate 2":1.14e6,"call":"inactive"}
{"gene":"Nnk","PubChem SID":"SID104203265","firefly reporter light, replicate 1":6.37e5,"firefly reporter light, replicate 2":5.76e5,"Renilla control light, replicate 1":6.22e5,"Renilla control light, replicate 2":7.37e5,"call":"inactive"}
{"gene":"CG5767","PubChem SID":"SID104186745","firefly reporter light, replicate 1":1.01e5,"firefly reporter light, replicate 2":1.09e5,"Renilla control light, replicate 1":1.80e6,"Renilla control light, replicate 2":1.80e6,"call":"inactive"}
{"gene":"CG5767","PubChem SID":"SID104208524","firefly reporter light, replicate 1":4.55e5,"firefly reporter light, replicate 2":3.62e5,"Renilla control light, replicate 1":9.87e5,"Renilla control light, replicate 2":9.06e5,"call":"inactive"}
{"gene":"CG6937","PubChem SID":"SID104195932","firefly reporter light, replicate 1":1.32e5,"firefly reporter light, replicate 2":1.31e5,"Renilla control light, replicate 1":1.21e6,"Renilla control light, replicate 2":1.56e6,"call":"inactive"}
{"gene":"CG6937","PubChem SID":"SID104202855","firefly reporter light, replicate 1":7.90e5,"firefly reporter light, replicate 2":7.63e5,"Renilla control light, replicate 1":9.23e5,"Renilla control light, replicate 2":1.09e6,"call":"inactive"}
{"gene":"CG14459","PubChem SID":"SID104202396","firefly reporter light, replicate 1":1.01e6,"firefly reporter light, replicate 2":1.13e6,"Renilla control light, replicate 1":1.51e6,"Renilla control light, replicate 2":1.66e6,"call":"inactive"}
{"gene":"CG43367","PubChem SID":"SID104188091","firefly reporter light, replicate 1":2.82e5,"firefly reporter light, replicate 2":1.97e5,"Renilla control light, replicate 1":2.72e6,"Renilla control light, replicate 2":2.07e6,"call":"inactive"}
{"gene":"CG43367","PubChem SID":"SID104188093","firefly reporter light, replicate 1":1.05e5,"firefly reporter light, replicate 2":92585,"Renilla control light, replicate 1":1.12e6,"Renilla control light, replicate 2":1.17e6,"call":"inactive"}
{"gene":"CG43367","PubChem SID":"SID104188101","firefly reporter light, replicate 1":3.28e5,"firefly reporter light, replicate 2":3.80e5,"Renilla control light, replicate 1":2.62e6,"Renilla control light, replicate 2":2.12e6,"call":"inactive"}
{"gene":"CG43367","PubChem SID":"SID104203366","firefly reporter light, replicate 1":7.91e5,"firefly reporter light, replicate 2":8.50e5,"Renilla control light, replicate 1":1.14e6,"Renilla control light, replicate 2":1.16e6,"call":"inactive"}
{"gene":"CG14079","PubChem SID":"SID104189875","firefly reporter light, replicate 1":1.85e5,"firefly reporter light, replicate 2":1.40e5,"Renilla control light, replicate 1":2.23e6,"Renilla control light, replicate 2":1.63e6,"call":"inactive"}
{"gene":"CCT3","PubChem SID":"SID104196394","firefly reporter light, replicate 1":47132,"firefly reporter light, replicate 2":20346,"Renilla control light, replicate 1":3.81e5,"Renilla control light, replicate 2":2.85e5,"call":"inactive"}
{"gene":"CG43901","PubChem SID":"SID104199189","firefly reporter light, replicate 1":2.97e5,"firefly reporter light, replicate 2":2.99e5,"Renilla control light, replicate 1":2.43e6,"Renilla control light, replicate 2":3.07e6,"call":"inactive"}
{"gene":"CG43901","PubChem SID":"SID104202150","firefly reporter light, replicate 1":5.15e5,"firefly reporter light, replicate 2":7.72e5,"Renilla control light, replicate 1":1.57e6,"Renilla control light, replicate 2":1.91e6,"call":"inactive"}
{"gene":"CG43901","PubChem SID":"SID104205575","firefly reporter light, replicate 1":4.89e5,"firefly reporter light, replicate 2":4.60e5,"Renilla control light, replicate 1":7.84e5,"Renilla control light, replicate 2":6.38e5,"call":"inactive"}
{"gene":"CG43901","PubChem SID":"SID104207663","firefly reporter light, replicate 1":5.11e5,"firefly reporter light, replicate 2":6.67e5,"Renilla control light, replicate 1":1.48e6,"Renilla control light, replicate 2":1.74e6,"call":"inactive"}

2 entries from above, showing only “firefly reporter light, replicate 2”:
CG43367 [SID104188091]	1.97e5
CG43367 [SID104188093]	92585
